# This is one part of the list. Further columns of the screen follow, without active or inactive calls. Most of these compounds were active or inconclusive in the main read-out, so they are no random draw. The note in brackets gives the kind of curve behind each potency; many fits are weak.
# Experiment: qHTS Assay for Lipid Storage Modulators in Drosophila S3 Cells;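 as to cell number change: cells counted by Cell Tracker Red CMTPX staining in the red channel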
# Details: BODIPY lipid droplet fluorescence, 18-24 h; for cell number change: measured here: cell count max response, cells fed with added oleic acid
# How it was run: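 Laser-scanning cytometry quantifies lipid droplet accumulation (500–530 nm total intensity; droplet/cell object ratio) in oleic acid-fed (400 uM added) Drosophila S3 cells treated with a concentration series. 20 uM Triacsin C defined 100% inhibition.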
# [1] = measured here: cell number channel AC50, cells fed with added oleic acid
# [2] = measured here: lipid fluorescence (Fed channel) AC50, cells fed with added oleic acid
Structure (SMILES),AC50 [1],cell number change,AC50 [2]
O=C(Cn1sc2ccccc2c1=O)N1CCN(C(=O)c2ccco2)CC1,"0.92 µM [rising, full curve]",,
CC(O)[C@H]1CC[C@H]2[C@@H]3CC[C@H]4C[C@H](O)CC[C@]4(C)[C@H]3[C@H](O)C[C@]12C (some centres undefined),,4.97%,"13 µM [falling, partial curve, poor fit]"
Cc1ccc(S(=O)(=O)CCC(=O)OCC(=O)N(C)CC(=O)Nc2ccc(F)cc2)cc1,,-4.42%,
COc1cc(/C=N/n2c(-c3ccc4c(c3)NC(=O)CO4)csc2=Nc2cccc(C)c2)ccc1O,,-23.4%,"29.1 µM [falling, single point]"
O=C(NCCOc1nc(N2CCOCC2)nc(N2CCOCC2)n1)Nc1ccc(Cl)cc1,,,"1.46 µM [rising, partial curve]"
CCOc1ccccc1-n1c(SCC(=O)NCc2ccco2)nnc1-c1ccncc1,,8.38%,"1.3 µM [rising, full curve, poor fit]"
O=C(NN1CCOCC1)c1cc(-c2ccccc2)nc2ccccc12,,23.3%,"29.1 µM [rising, single point]"
O=C(c1ccccc1)c1cc(Cl)ccc1N1C(=O)C=CC1=O,"10.3 µM [falling, partial curve]",-56.9%,
CCOC(=O)c1cn(CC)c2cc3c(cc2c1=O)OCO3,"0.206 µM [falling, full curve]",-36.4%,"0.206 µM [falling, full curve]"
COc1ccc2oc(C(=O)OC(C)C(=O)NCc3ccccc3)c(C)c2c1 (centres undefined),,-8.8%,"20.6 µM [falling, single point]"
COc1ccc(C=Nc2cccc3c(=O)[nH][nH]c(=O)c23)c2ccccc12,"8.2 µM [rising, partial curve]",124%,"5.8 µM [rising, partial curve]"
CCN(CC)S(=O)(=O)c1ccc(N2CCOCC2)c(NC(=O)c2ccc(N3CCCC3=O)cc2)c1,"6.51 µM [falling, single point]",,
Cc1ccc(-c2cc3ccccc3nc2N)cc1,"29.1 µM [falling, single point]",-43%,"29.1 µM [falling, single point]"
Cc1n[nH]c(=O)nc1NCCc1ccccc1,,6.15%,"0.82 µM [falling, single point]"
Cc1nc2ccc(F)cc2cc1C(=O)Nc1ccc(Cl)c(Cl)c1,,-5.84%,"20.6 µM [falling, single point]"
COc1ccccc1CCc1nnc(CCC(=O)NCCCOc2cccnc2)o1,,9.41%,"6.51 µM [rising, single point]"
Cc1ccc(N2C(=O)NC(NC(=O)c3ccc(Cl)cc3)(C(F)(F)F)C2=O)cc1 (centres undefined),,-11.7%,"9.2 µM [rising, partial curve]"
O=C(COc1cccc(Br)c1)NN=C1c2ccccc2-c2ccccc21,"18.4 µM [falling, single point]",-34.7%,
CC(=O)N/N=C(\N)c1nonc1N,,,"5.8 µM [falling, full curve, poor fit]"
Cc1ccc(C(=O)NCCC(=O)N2CCC3(CC2)NCCc2[nH]cnc23)cc1C,,4.58%,"29.1 µM [rising, single point]"

# 2 entries from above, bar-delimited:
Structure (SMILES) | AC50 [1] | cell number change | AC50 [2]
COc1ccc2oc(C(=O)OC(C)C(=O)NCc3ccccc3)c(C)c2c1 (centres undefined) |  | -8.8% | 20.6 µM [falling, single point]
COc1ccc(C=Nc2cccc3c(=O)[nH][nH]c(=O)c23)c2ccccc12 | 8.2 µM [rising, partial curve] | 124% | 5.8 µM [rising, partial curve]

# Later entries:

Structure (SMILES),AC50 [1],cell number change,AC50 [2]
CC(C)c1ccc(C2=C(O)c3ccccc3C(=O)C2=O)cc1,"2.31 µM [rising, full curve, poor fit]",24%,"16.4 µM [rising, partial curve, poor fit]"
CC(C)(Oc1ccc(Cl)cc1)C(=O)NCc1n[nH]c(=O)c2ccccc12,,8.38%,"29.1 µM [falling, single point]"
O=[N+]([O-])c1ccc2c(c1)C(N1CCOCC1)/C(=C/COc1ccc(Cl)cc1Cl)O2 (centres undefined),,,"6.51 µM [rising, single point]"
COc1cc(C)c(S(=O)(=O)Nc2ccccc2F)cc1C,,11.3%,"2.59 µM [rising, partial curve]"
O=C(c1ccco1)c1cn(CC(=O)N2CCCCC2)c2ccccc12,,-20.7%,"29.1 µM [falling, single point]"
O=C(NCc1ccc2c(c1)OCO2)C1CC(=O)N(CCc2ccc(F)cc2)C1 (centres undefined),,5.46%,"6.51 µM [falling, single point]"
Cc1nc(C)c(-c2csc(Nc3ccc(S(N)(=O)=O)cc3)n2)s1,,8.79%,"29.1 µM [falling, single point]"
Cc1ccc(C)c(S(=O)(=O)C(C#N)c2nc3ccccc3nc2N2CC(C)OC(C)C2)c1 (centres undefined),"1.84 µM [rising, full curve, poor fit]",42.3%,"1.84 µM [rising, partial curve]"
Cc1cc(C)cc(COn2ccnc2)c1,"0.651 µM [rising, full curve, poor fit]",18.9%,"2.59 µM [rising, full curve]"
COc1ccc(NC(=O)c2coc(C)c2)cc1,"0.146 µM [rising, full curve, poor fit]",18.4%,
O=C(CSc1nnc(NC(=O)C2CC(=O)N(c3ccc(F)cc3)C2)s1)NC1CCCC1 (centres undefined),"2.59 µM [falling, full curve, poor fit]",-19.8%,
CCOC(=O)c1sc2ncn(/N=C/c3ccc(O)cc3)c(=O)c2c1C,"1.16 µM [rising, single point]",-8.76%,"1.16 µM [rising, single point]"
Cn1c(SCc2nnc(-c3ccc(F)cc3)o2)nnc1C1COc2ccccc2O1 (centres undefined),,,"4.11 µM [rising, single point]"
Cn1c(SCC(=O)NNC(=O)c2ccccc2)nnc1C(F)(F)F,,-20.6%,"14.6 µM [rising, partial curve]"
COc1ccc([N+](=O)[O-])cc1NC(=O)CCN1CCN(c2ccccc2OC)CC1,"6.51 µM [rising, single point]",-3.69%,
C/C(=N\NC(=O)c1ccc(Br)cc1)c1cccc(NC(=O)c2cccnc2)c1,,-15.4%,"16.4 µM [rising, single point]"
Cc1ccccc1OCCC(=O)Nc1ccc2c(C)cc(=O)oc2c1,"29.1 µM [rising, single point]",32%,"11.6 µM [rising, partial curve]"
O=C(COC(=O)c1ccc(F)c(S(=O)(=O)N2CCOCC2)c1)Nc1ccc2c(c1)OCO2,"25.9 µM [rising, single point]",45%,
O=C(Nc1nc2nccc(-c3ccccc3)n2n1)c1ccc(F)cc1,,-26.4%,
O=C1C=C(c2cccs2)CC(c2cccs2)C1n1cnc([N+](=O)[O-])c1 (centres undefined),,-7.95%,

Structure (SMILES),AC50 [1],cell number change,AC50 [2]
CC1(C)C(=O)Nc2ccccc2N1C(=O)COC(=O)CSc1ccc(Cl)cc1,,10.9%,"6.51 µM [rising, single point]"
COc1ccc(-c2nnnn2C)cc1S(=O)(=O)Nc1ccc(C)cc1C,,,"29.1 µM [falling, single point]"
O=C(CSc1cccc[n+]1[O-])c1ccc(-c2ccccc2)cc1,"29.1 µM [rising, single point]",30.7%,
COc1ccc(-c2nc3c4ccccc4[nH]c(=O)n3n2)cc1,,-14.4%,"0.13 µM [falling, full curve, poor fit]"
Cc1ccc2c(C)[nH]c(=O)cc2c1,"0.82 µM [falling, full curve, poor fit]",-26.4%,"4.11 µM [falling, single point]"
COc1ccc(Cl)cc1NC(=O)c1nc2nc(C)cc(C(F)F)n2n1,,9.56%,"2.91 µM [rising, single point]"
Clc1ccc(-c2csc(NNC3=NCCCCC3)n2)cc1,"14.6 µM [falling, single point]",-46%,"23.1 µM [falling, partial curve, poor fit]"
Cc1ccc(S(=O)(=O)NC(CCc2ccccc2)CC(=O)C(C)(C)C)cc1 (centres undefined),,15.5%,"8.2 µM [rising, partial curve]"
COc1ccccc1OCCNC(=O)CNC(=O)c1ccc(Cl)c(Cl)c1,,26.1%,
Cc1ccc(-c2nc3c(c(SCC(=O)N4CCOCC4)n2)Cc2c(CO)cnc(C)c2O3)cc1,"11.6 µM [falling, partial curve]",-39.5%,
CN1CCN(/N=C2/C(=O)Nc3ccc([N+](=O)[O-])cc32)CC1,,-28.6%,"2.31 µM [falling, partial curve, poor fit]"
O=C(Nc1ccc(Cl)cc1)c1cc2nc(-c3ccco3)cc(C(F)(F)F)n2n1,"0.259 µM [falling, full curve, poor fit]",-24.9%,
CC1CN(C(=O)C(C)N2C(=O)c3ccccc3C2=O)CC(C)O1 (centres undefined),,-3.2%,
CC(Sc1nnc(CNC(=O)c2ccccc2F)n1C)C(=O)Nc1nccs1 (centres undefined),,21.4%,
COc1ccc(-c2csc(NC(=O)CSc3nc4ccccc4c(=O)[nH]3)n2)cc1,"29.1 µM [rising, single point]",87.4%,"29.1 µM [falling, partial curve, poor fit]"
O=C(Cc1cccc2ccccc12)N1CCCc2ccccc21,,16.1%,"29.1 µM [rising, single point]"
CCC(C)(C)NC(=O)C(c1ccccc1Cl)N(C(=O)CCC(=O)Nc1cc(C)on1)C(C)(C)C (centres undefined),,2.61%,
COc1ccccc1-c1nnc(C2CCN(S(=O)(=O)c3ccc([N+](=O)[O-])cc3)CC2)o1,"32.6 µM [falling, partial curve, poor fit]",-59.3%,"20.6 µM [falling, single point]"

# Fetched one by one from above:
Structure (SMILES),AC50 [1],cell number change,AC50 [2]
CN1CCN(/N=C2/C(=O)Nc3ccc([N+](=O)[O-])cc32)CC1,,-28.6%,"2.31 µM [falling, partial curve, poor fit]"
CCC(C)(C)NC(=O)C(c1ccccc1Cl)N(C(=O)CCC(=O)Nc1cc(C)on1)C(C)(C)C (centres undefined),,2.61%,

# From PubChem BioAssay AID2685 (National Center for Advancing Translational Sciences (NCATS), 2010)
